Laboratory results: article PMC11733299
No constants are given. Whether binding was seen depends on the method and setting. Some binding calls cover weakened binding; strength is not graded here.

Assays:
Experiment in all cases: two-hybrid; mating-based split-ubiquitin system (mbSUS); CNGC (full length or TM domains) in pMetYCgate (Cub), CPK1 in pNXgate32-3HA (Nub); yeast THY.AP4; growth on SD/-Leu-Trp-His-Ade
[1] = biological target: T1, full-length CNGC6 in pMetYCgate (Cub) (Arabidopsis thaliana) (UniProt O82226)
T1 sequence: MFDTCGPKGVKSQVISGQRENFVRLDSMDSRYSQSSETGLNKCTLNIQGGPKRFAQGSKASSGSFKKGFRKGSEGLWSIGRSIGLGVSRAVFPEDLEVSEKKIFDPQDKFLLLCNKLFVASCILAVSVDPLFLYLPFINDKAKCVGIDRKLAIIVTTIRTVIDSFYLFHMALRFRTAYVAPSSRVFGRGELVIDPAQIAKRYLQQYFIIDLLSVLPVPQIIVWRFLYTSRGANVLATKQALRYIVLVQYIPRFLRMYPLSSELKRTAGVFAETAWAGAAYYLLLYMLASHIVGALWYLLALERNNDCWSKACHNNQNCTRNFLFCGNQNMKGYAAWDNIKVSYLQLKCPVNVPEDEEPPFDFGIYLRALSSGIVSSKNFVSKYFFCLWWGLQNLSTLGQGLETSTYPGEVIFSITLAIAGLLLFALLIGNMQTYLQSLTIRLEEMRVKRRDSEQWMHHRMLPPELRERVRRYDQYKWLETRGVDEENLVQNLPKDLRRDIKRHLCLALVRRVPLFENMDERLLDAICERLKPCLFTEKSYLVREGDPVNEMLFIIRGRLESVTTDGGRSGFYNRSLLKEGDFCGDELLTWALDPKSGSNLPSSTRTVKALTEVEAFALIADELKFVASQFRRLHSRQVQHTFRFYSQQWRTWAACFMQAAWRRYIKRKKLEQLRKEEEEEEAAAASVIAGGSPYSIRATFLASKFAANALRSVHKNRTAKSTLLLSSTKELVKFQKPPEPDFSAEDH

[2] = biological target: T2, CNGC9-M (aa118-427) in pMetYCgate (Cub) (Arabidopsis thaliana) (UniProt Q9M0A4)
T2 sequence: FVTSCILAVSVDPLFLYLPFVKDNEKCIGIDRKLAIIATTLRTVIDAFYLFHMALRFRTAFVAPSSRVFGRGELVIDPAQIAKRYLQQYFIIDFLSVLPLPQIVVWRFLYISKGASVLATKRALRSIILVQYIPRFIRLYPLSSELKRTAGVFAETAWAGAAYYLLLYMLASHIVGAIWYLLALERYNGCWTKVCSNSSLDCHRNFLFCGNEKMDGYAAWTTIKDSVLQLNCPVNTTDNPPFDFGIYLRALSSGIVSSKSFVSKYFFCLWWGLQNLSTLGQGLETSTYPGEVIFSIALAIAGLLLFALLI

[3] = biological target: T3, full-length CNGC5 in pMetYCgate (Cub) (Arabidopsis thaliana) (UniProt Q8RWS9)
T3 sequence: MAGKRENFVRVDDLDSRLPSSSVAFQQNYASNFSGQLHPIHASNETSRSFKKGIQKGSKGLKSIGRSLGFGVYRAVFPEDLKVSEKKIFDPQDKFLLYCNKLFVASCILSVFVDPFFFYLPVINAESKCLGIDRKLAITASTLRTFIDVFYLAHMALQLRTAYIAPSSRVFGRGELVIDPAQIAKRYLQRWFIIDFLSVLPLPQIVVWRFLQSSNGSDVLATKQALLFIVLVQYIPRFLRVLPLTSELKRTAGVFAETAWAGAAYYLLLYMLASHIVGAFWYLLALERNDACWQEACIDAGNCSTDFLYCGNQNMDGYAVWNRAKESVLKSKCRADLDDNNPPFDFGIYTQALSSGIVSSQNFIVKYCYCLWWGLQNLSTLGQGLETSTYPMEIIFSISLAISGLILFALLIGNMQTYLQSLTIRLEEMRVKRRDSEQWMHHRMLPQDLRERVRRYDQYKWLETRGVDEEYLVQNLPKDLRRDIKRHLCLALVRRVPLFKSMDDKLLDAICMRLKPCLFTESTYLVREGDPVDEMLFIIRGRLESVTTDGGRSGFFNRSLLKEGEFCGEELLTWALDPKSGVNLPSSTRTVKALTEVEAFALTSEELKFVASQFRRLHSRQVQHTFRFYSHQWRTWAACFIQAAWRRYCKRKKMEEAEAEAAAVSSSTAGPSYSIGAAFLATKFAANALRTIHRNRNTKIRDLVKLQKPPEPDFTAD

binding [1]: binds | binding [2]: no binding | binding [3]: binds
B1: Nub-CPK1 (calcium dependent protein kinase 1 in pNXgate32-3HA) (enzyme, UniProt Q06850 1-610)
chain: MGNTCVGPSRNGFLQSVSAAMWRPRDGDDSASMSNGDIASEAVSGELRSRLSDEVQNKPPEQVTMPKPGTDVETKDREIRTESKPETLEEISLESKPETKQETKSETKPESKPDPPAKPKKPKHMKRVSSAGLRTESVLQRKTENFKEFYSLGRKLGQGQFGTTFLCVEKTTGKEFACKSIAKRKLLTDEDVEDVRREIQIMHHLAGHPNVISIKGAYEDVVAVHLVMECCAGGELFDRIIQRGHYTERKAAELTRTIVGVVEACHSLGVMHRDLKPENFLFVSKHEDSLLKTIDFGLSMFFKPDDVFTDVVGSPYYVAPEVLRKRYGPEADVWSAGVIVYILLSGVPPFWAETEQGIFEQVLHGDLDFSSDPWPSISESAKDLVRKMLVRDPKKRLTAHQVLCHPWVQVDGVAPDKPLDSAVLSRMKQFSAMNKFKKMALRVIAESLSEEEIAGLKEMFNMIDADKSGQITFEELKAGLKRVGANLKESEILDLMQAADVDNSGTIDYKEFIAATLHLNKIEREDHLFAAFTYFDKDGSGYITPDELQQACEEFGVEDVRIEELMRDVDQDNDGRIDYNEFVAMMQKGSITGGPVKMGLEKSFSIALKL
